PMC8501957
Results are given in words; binding and its absence hold for the method and conditions named. Some entries that bind do so weakly or less than the wild type.

Target: MvaT of P. aeruginosa (P. aeruginosa) (UniProt Q9HW86)
Assay: dynamic light scattering; unbound MvaT in solution with and without gp4; methods not shown; both purified

B1: MvaT of P. aeruginosa (protein, UniProt Q9HW86 1-124)
chain: MSLINEYRATEEAIKELQERLKSLEQDDKLKKELEFEEKLRTLMGTYQKSLRDVISLLDPDAKIGKSTRTAKAPAGKRARKVKQYKNPHTGEVIETKGGNHKTLKEWKAKWGPEAVESWATLLG
- binding: binds
